# Primary screen of a compound library

Data taken from ChEMBL document CHEMBL3988442, “University of Dundee, Small-Polar-MMV Screening Library” (2021).

Results are given as percent effect.
The record does not define 0% and 100%; most values in the screen are far below 50% and negative numbers occur (in some assays of this library far below -100).
Compounds were drawn at random from those tested, without regard to their results.
Two or more numbers in one place are separate tests of the same structure; such repeats can differ widely.
A dash means the value is not listed here; it may have been measured.

T. brucei: 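Whole-parasite assay of Trypanosoma brucei over 72 hours; the read-out is not stated. Tested at 30 µM. The record gives no direction; compounds that gave an IC50 in retests scored well above the rest, so higher reads as stronger inhibition. Values scatter widely below zero; nearly all retest evidence comes from the higher of the two concentrations used. Of about 64,000 compounds tested this way, about 940 (1.5%) reached 50% or more in at least one test.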
Toxoplasma: 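Assay of Toxoplasma gondii numbers, read through their beta-galactosidase reporter with a colour substrate. Compounds at 10 µM. Higher reads as fewer parasites (inferred from which compounds were picked for retests). Size under these conditions: about 67,000 compounds, about 260 of them at 50% or above in at least one test.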
Leishmania in macrophages: 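Cell assay of Leishmania donovani living inside macrophages; the read-out is not stated. Tested at 30 µM. Direction is inferred from retests: higher values go with stronger inhibition. About 69,000 compounds were tested under these conditions; 1.5% (about 1,000) showed 50% or more at least once.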

structure	T. brucei	Toxoplasma	Leishmania in macrophages
COc1ccc(CNC[C@H]2COCc3nc4cc(F)ccc4n32)cc1	-6.444	12.12	30.43
CC(=O)NCCNC(=O)c1cc(C)ccc1SC1CCCC1	-29.77	-0.5021	-2.92
CCN1C(=O)C2(CCOCC2)c2cc(NC(=O)c3ccco3)ccc21	2.658	17.5	18.55
CNC(=O)NCC(=O)N1CCCC1Cc1cccc(F)c1 (centres unmarked)	5.712	-0.2273	13.27
COc1ccc(F)cc1S(=O)(=O)N1CCC(OC)CC1	7.128	-6.564	2.619 and 16.35
CNc1snc(C)c1C(=O)N1CCCC(n2ccnc2C)C1 (centres unmarked)	12.01	-6.29	24.52
Cc1cc(C(=O)N2CCCC(n3cncn3)C2)c(C)n1C1CC1 (centres unmarked)	9.873	1.406	35.15
O=C(CCCn1nnc(-c2ccc(F)cc2)n1)N1CCOCC(CO)C1 (centres unmarked)	-7.418	-4.909	1.673
CS(=O)(=O)CCSc1nnc(Cc2ccccc2F)o1	-8.018	-9.114	-16
O=C(c1ccc(Br)o1)N1CCCC(n2cncn2)C1 (centres unmarked)	11.73	-1.454	-19.4
[H][C@@]12CCN(Cc3ccoc3)[C@]1([H])C[C@@H](C(=O)NCC1CCOCC1)O2	-24.35	-5.273	-11.51
O=S(=O)(N1CCOCC1)N1CCC(Oc2cnccn2)CC1	-18.25	-11.82	12.16
COc1ccnc(N2CCN(Cc3nc(-c4ccoc4)no3)CC2)c1	-18.91	-6.709	-7.447
Cc1cn2cc(-c3nc4c([nH]3)CCCNC4=O)nc2s1	81.5	-8.683	18.57
O=C(NC[C@H]1CC[C@H](c2ccnc3ncnn32)CC1)C1CC1	-	-	16.97
COCC1CN(C(=O)COc2ccccc2)Cc2cn(C)nc21.O=C(O)C(F)(F)F (centres unmarked)	-8.127	-4.435	14.44
CCn1cc(C(=O)NC2CCN(S(C)(=O)=O)CC2)c2ccccc21	-13.72	6.752	5.691
CSc1ccc(OC(C)C(=O)Nc2c(C)n[nH]c2C)cc1 (centres unmarked)	1.464	0.3121	27.88
CCc1ncnc2c1CCN(C(=O)N1CCCC1)CC2	-34.09	-0.5342	-19.17
Cc1cccnc1C(=O)N1CCC(Cc2cnc3[nH]ccc3c2)CC1	21.52	11.31	-6.721
Cn1cc(I)c(C(=O)NC2CCCC2)n1	-65.67	14.13	17.52
CNC(=O)c1ccc(OC)c(NCc2noc(-c3cccs3)n2)c1	-54.04	5.274	-50.4
CC(NCc1ccc(Cl)o1)c1nnc2n1CCCC2 (centres unmarked)	-15.63	-8.115	6.04
[H][C@]12CCN(S(C)(=O)=O)[C@@]1([H])CC[C@@H](COCc1csc(C)n1)O2	-	-3.174	-16.24
CN(Cc1nc(-c2cccnc2)no1)C(=O)c1cnc2n1CCCC2	-78.67	4.002	-14.26
CN(C)CC1(O)CCCN(Cc2ccccc2OCC(=O)N(C)C)C1 (centres unmarked)	-8.832	-8.365	14.45
CN(CCc1ccccc1)Cc1cc(C(=O)N2CCSCC2)no1	-18.81	15.81	23.23
COc1ccc(C(=O)N2C[C@@H](O)[C@H](NCc3cnc(C)cn3)C2)cc1	-14.31	6.027	31.03
CNS(=O)(=O)c1cccc(C(C)NCc2ccc(C)c(C)c2)c1 (centres unmarked)	-114.1	-6.913	17.01
N#CC1(NC(=O)CN2CCc3c(ncn3C3CC3)C2)CCCC1	-69.82	1.438	23.18
Cc1nc2[nH]cnc(Nc3cnn(C)c3)c-2n1	-15.59	-13.22	10.52
CC(=O)N1CCN(C(=O)C[C@@H]2C[C@@H](C(C)C)[C@H](CC#N)C=C2C)CC1	-23.44	-8.674	-22.17
CS(=O)(=O)c1nnc(NC(=O)CCc2cccs2)[nH]1	-1.751	-1.337	5.932
CCN(Cc1nc(C)no1)C(=O)C1CC(=O)N(Cc2cccnc2)C1 (centres unmarked)	-62.54	-23.75	-2.051
O=C(c1cccnc1OCC(F)(F)F)N1CCCn2ncnc21	-15.9	2.183	10.4
Fc1cc(CN2CCCC2Cn2cncn2)c2ncccc2c1 (centres unmarked)	-	46.16	3.306
Cn1nc(Br)c2c(NCCCS(N)(=O)=O)ncnc21	-37.28	-21.08	17.08
Cc1n[nH]cc1CNCc1cccc(OCC(F)(F)F)c1.Cl	-10.32	1.011	32.41
[H][C@@]12CN(CC3CC3)CCO[C@]1([H])CN(C(=O)c1ncccn1)C2	-61.82	5.114	0.3504
COc1ccc(NC(=O)CSc2ccc3nncn3n2)c(OC)c1	-27.79	-	-3.887
CNC(=O)C(C)(C)NC(=O)c1cc(COc2cccc(C(C)=O)c2)[nH]n1	-3.619	-9.729	30.07
CCN1CCC(NC(=O)CN2CCCCC2Cn2cccn2)CC1 (centres unmarked)	-41.65	-3.905	19.02
CC(C)COCC1CN(Cc2ccc3c(c2)OCO3)Cc2ncn(C)c21.O=C(O)C(F)(F)F.O=C(O)C(F)(F)F (centres unmarked)	-29.56	-3.568	-23.39
CSc1ncccc1C(=O)N(C)C(C)Cc1ccccn1 (centres unmarked)	-5.397	-1.276	16.28
COCC(=O)N1CCC2(CCN(Cc3ccc(C)cc3)CC2)CC1.O=C(O)C(F)(F)F	-24.62	-6.515	16.03
COc1cccc(-c2nc(CNCCc3cccnc3)cs2)c1	-3.864	0.7234	-0.3159
CN(C)S(=O)(=O)N1CCC[C@]2(C[C@@H](Oc3ccccn3)CO2)C1.O=C(O)C(F)(F)F	-55.03	-5.322	0.2979
CC1CCCN(Cc2ccc(OCc3nccn3C)cc2)C1 (centres unmarked)	-9.453	-7.46	11.9
Cn1c(C(=O)NS(C)(=O)=O)ccc1-c1ccccc1	-14.98	-4.802	18.33
c1ccc(C2CN(c3ncnc4[nH]cnc34)CCO2)cc1 (centres unmarked)	33.75	19.65	5.372
CS(=O)(=O)NC1CCN(Cc2ccc(OCc3ccccn3)cc2)CC1	-6.165	-8.343	12.88
CNC(=O)CCc1cccc(OC2CCCC2)c1	-21.1	-3.255	5.594
Cc1ccc(CNC(=O)CN2CCCCC2Cn2cncn2)s1 (centres unmarked)	6.685	-7.225	-4.852
Fc1ccc(C2CN(CCc3ccncc3)CCO2)cc1 (centres unmarked)	-39.15	30.36	-17.14
CC(C)C(=O)NC1CCCN(C(=O)c2ccc(O)c(Cl)c2)C1 (centres unmarked)	14.32	-5.92	17.43
Cc1cnn(CC2CCCN2C(=O)CCCc2nc(C)no2)c1 (centres unmarked)	-51.99	1.257	-15.59
c1ccc(-c2nnc(C3CCCN(CC4CCCCC4)C3)o2)nc1 (centres unmarked)	18.1	-40.18	14.61
[H][C@@]12C[C@@H](Oc3ccccc3)C[C@]1([H])CN(Cc1cnccn1)C2	-13.3	1.445	-12.64
COc1ccc(CCC(=O)N(C(C)C)C2CCOCC2)cc1	5.206	-6.698	-3.694
Cc1nc(C2CCCN2C(=O)Cn2cncn2)no1 (centres unmarked)	-	6.806	21.12
CCn1ncc2c1C(COCC1CC1)N(Cc1cnn(C)c1)CC2.O=C(O)C(F)(F)F.O=C(O)C(F)(F)F.O=C(O)C(F)(F)F (centres unmarked)	-	-9.013	14.36
CCC(CNC1CCN(C(C)=O)CC1)Oc1ccccc1Cl (centres unmarked)	-11.54	-44.42	37.93
[H][C@@]12CN(C(=O)C3CC=CC3)C[C@]1([H])C(=O)N(CC)C2	-58.75	0.05319	-4.444

Repeated from the top, 7 entries:

{"structure": "COc1ccc(CNC[C@H]2COCc3nc4cc(F)ccc4n32)cc1", "T. brucei": -6.444, "Toxoplasma": 12.12, "Leishmania in macrophages": 30.43}
{"structure": "CC(=O)NCCNC(=O)c1cc(C)ccc1SC1CCCC1", "T. brucei": -29.77, "Toxoplasma": -0.5021, "Leishmania in macrophages": -2.92}
{"structure": "CCN1C(=O)C2(CCOCC2)c2cc(NC(=O)c3ccco3)ccc21", "T. brucei": 2.658, "Toxoplasma": 17.5, "Leishmania in macrophages": 18.55}
{"structure": "CNC(=O)NCC(=O)N1CCCC1Cc1cccc(F)c1", "stereo": "centres unmarked", "T. brucei": 5.712, "Toxoplasma": -0.2273, "Leishmania in macrophages": 13.27}
{"structure": "COc1ccc(F)cc1S(=O)(=O)N1CCC(OC)CC1", "T. brucei": 7.128, "Toxoplasma": -6.564, "Leishmania in macrophages": "2.619 and 16.35"}
{"structure": "CNc1snc(C)c1C(=O)N1CCCC(n2ccnc2C)C1", "stereo": "centres unmarked", "T. brucei": 12.01, "Toxoplasma": -6.29, "Leishmania in macrophages": 24.52}
{"structure": "Cc1cc(C(=O)N2CCCC(n3cncn3)C2)c(C)n1C1CC1", "stereo": "centres unmarked", "T. brucei": 9.873, "Toxoplasma": 1.406, "Leishmania in macrophages": 35.15}